The record followed here is PubChem BioAssay AID1508600 (Functional Genomics Laboratory (NCATS/FGL), 2020).

Out of some 53,000 sequences screened, about 3,700 (7%) were called active.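 The calls were made as follows: active = gene knockdowns whose robust z-score for IL-1 alpha signal is at least 2 or at most -2, so actives lie on both sides; inactive = the rest.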 Some of the results follow.

A short description of the experiment: Components of the Cytosolic LPS Sensing Pathway: Gene Identification via Genome-wide siRNA Screen.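 Also: robust z of the log signal after scaling to non-targeting control siRNA wells of the plate.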 To be noted: RAW264.7 macrophages, IL-1a HTRF, actives lie on both sides, screened at 100 nM (by protocol), cells primed 5 h with Pam3CSK4 first. Summed up: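 Mouse macrophage line RAW264.7 is transfected with siRNA (100 nM final), grown 48h, primed with TLR ligand Pam3CSK4 5 h and given intracellular LipidA 24 h. IL-1a in supernatant is read by HTRF and viability by luminescence.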
A general note: TR-FRET usually uses a lanthanide donor and a delayed reading to cut background.
For the sequence GGCAGAAUGGGCUUAUGUCTT against Trabd, the z-score is active: -2.54.
The result for GCGGAGAGAUCAAAGCGAUTT against Iltifb reads active: -2.05.
The result for GGAGAAGAAGUCCAAAGGATT against Tnfaip2 reads inactive: -0.392.
The result for CCAACGGAUGCUCAAACAATT against Aspscr1 reads inactive: -1.62.
With GGUUAGCUGAAAGUUGAGGTT against Fbxo41, the z-score was inactive: 1.28.
The result for GCUACGAAGAAGCAUGCCUTT against Slain1 reads inactive: -0.132.
The result for GCCGUUAACCUCAAGUUUUTT against Lrrn3 reads inactive: -0.181; that for CCUCCCUAUUCUAUGGUAGTT against Prss34, inactive: 0.0934; that for CCUGUUUCUGACCUAAUACTT against Syn1, inactive: -0.088.
The result for GCCGAGCCAUAUGACACUATT against Tlk2 reads inactive: -0.566.
Consider GGCCAUGAAUCUUGUUGGGTT against Scg5, for which the z-score is inactive: -0.684.
As to CCGUUAGGUUUUUAUCCAATT against Ube2b, the z-score is inactive: 0.193.
The value for GGAUUUUGAACCCAGUUAUTT against St3gal5 was inactive: -0.861; that for CCAGAUUGUCACUUGCUACTT against Skint3 was inactive: 1.25.
The value for GGGUUAUCCAAGUCUUUUCTT against Olfr617 was inactive: 1.48; that for GGAUGGCUCCAUUGUCAUATT against Mpz was inactive: 0.37.
With GGAACUUAAUCACCCUAAUTT against Cdk2, the z-score is inactive: -1.46.
As to CCACUUUCAGAAACAUUACTT against A2ml1, the z-score is inactive: -1.01.
The result for GCUAUGCAGAGGAGUAUGCTT against Duoxa1 reads active: 3.03; that for GGUUAAGCAGAAAUUAAGATT against Supt20, inactive: -0.551.
The result for GGCUUUUUCCUCUAUCUGATT against Thoc1 reads inactive: -0.291.
The result for GCCACCCACCUAAAAUCAATT against Rcsd1 reads inactive: -0.216; that for CCCUUUGCAUUCCUACUGATT against Gm9991, inactive: -0.179; that for GGCAUGAUUAUUGUGUUUGTT against Abcb11, inactive: 0.41.
Turning to GGUGCAGCAUACCUGAAGATT against Parm1, the z-score was inactive: 0.803.
Regarding GGUCUUAAACAGUGUGACATT against Gbf1, the z-score was inactive: -1.15.
The value for GCUGAAGGAGAAAUUCACCTT against Ptgds was inactive: 0.923; that for GGGUCAUGUACUUCUUUAUTT against Mip was inactive: 0.461; that for GGACAAAGAGGCAAUGGGATT against Dnajb9 was inactive: 1.08.
The value for CGUCCAGAGCUACGUAUGCTT against Olfr1490 was inactive: 0.849; that for GGCCAAAGUGGUGUGUUUCTT against Mta1 was active: 2.46; that for GGGCAGUCAACUUAGUGAGTT against Olfr1208 was inactive: -0.631.
The value for GCAAGUUACCAGGAUGCAATT against Pglyrp3 was inactive: -0.379.
In the case of CGGUGAUCGUCAUUUUAUUTT against Ap4m1, the z-score is active: 2.47.
Take GGAGCGCAGACAACAGAUUTT against Zkscan5: the z-score was inactive: 0.634.
Regarding GGAAAGCCAUCGAAUUUCCTT against Il17re, the z-score was inactive: 0.0362.
The result for GGAAAGAAAAAUGAAGCUUTT against Tmem167b reads inactive: -0.548; that for GCUCGAUUCAGUCAUUGAGTT against Ak2, inactive: -0.975.
The value for GCUGUAAAGUAAGUGUAGUTT against Rwdd4a was inactive: 0.59; that for GGAGACUAAGGAGGUUUAUTT against Ruvbl1 was inactive: 0.494; that for GGUUCUCCCAGACCAAAGATT against Cables1 was inactive: -0.186.
The value for GCAAGAUCUUGAGUUUUGATT against Wnt3 was inactive: 0.171.
Turning to GGAAAACUAGACAGAAAAUTT against Letm2, the z-score was inactive: 0.0558.
The result for GGAAAUGUCUUAUGAUAACTT against Col5a1 reads inactive: 0.194; that for GCCGAUGACACUAUCUACCTT against Cryz, inactive: 0.465; that for GCACUAUCCAGGAGCAUUUTT against Ugt3a2, inactive: -0.313.
The result for GAAAGAAACUGCUGAAUGATT against Vmn1r228 reads inactive: -1.42; that for GGAGAAACGGGUUUUUCAATT against Nfrkb, inactive: 1.72.
The result for UAGCCCAGCCUUCUUUUCCTT against Olfr658 reads inactive: 0.231; that for GCUUGAAUUUCUGUGGAGGTT against Olfr1320, active: -2.44.
Regarding GGAGGCAGAUGCUGGAAUCTT against Defb3, the z-score is active: 4.19.
For CCAGAACCAGACGCGUAACTT against Cox6b2, the z-score is inactive: -0.917.
As to GGCAGAGGUACAAUCAGAUTT against St8sia2, the z-score is inactive: -0.517.
With GGGUCCUCAACACUUCAUATT against Gast, the z-score is inactive: 0.216.
The result for GGAGACUAUCCUCAUUAUUTT against Smarca4 reads inactive: 0.36.
The result for GCUUGCUUCGCCUACAUUGTT against Slc46a3 reads inactive: -0.501; that for GCACAACAUAUGUUCCGCCTT against Pard3, inactive: -0.382.
Regarding CGGCUCCAGGCAAAUAUGGTT against Ezh1, the z-score is inactive: -1.64.
For GGACGAUCGGAAUUGGAAATT against Slc8b1, the z-score is inactive: 0.734.
The value for GGUAUUUUGCUCAGUCCCGTT against Tfap2b was inactive: 0.106; that for GGUGCGCUUCUAUGUUCCUTT against Ssrp1 was active: 2.38; that for GCAGAGUUACAAGCUUUUATT against Diaph3 was active: -4.98.
The value for GCGUGAUUCCAGUUUACAUTT against Mapk6 was inactive: -0.376.
With GGGAUUUUGUACAUUUUUGTT against Egln3, the z-score was inactive: 1.51.
The result for CCAUAGCUGAUACUGAUGCTT against Apol7c reads inactive: -0.0563; that for GCAAAAUUUGGCUUAAAGATT against Bank1, inactive: 0.238; that for CCAUCUAUGGUAUGGAGCGTT against Abcg4, inactive: 0.606.
In the case of GGCAAAUAGAGUGUGAACATT against Lgals12, the z-score was inactive: 0.142.
As for GGGCUAAAUUCAUGGGUUCTT against Timp1, the z-score was inactive: 0.681.
The value for CCUUCGAUUGAUCUCUAAGTT against Eif4e was inactive: 0.587.
The value for CCCUCCUCAGUAUUGUACUTT against Dtx2 was active: 2.51; that for GGACAUUUAUCCCAUGACATT against Coro2b was inactive: 0.814.
Turning to GGGAAAAUGCGAUUCAUGATT against P2ry14, the z-score is inactive: -0.774.
Consider GGUUCUGGAUUUCAUCACGTT against Coasy, for which the z-score was inactive: 0.818.
The result for GCUUUCCUACGUUUGAAAUTT against Coro1c reads inactive: 0.0227; that for GCCUAUAUAUGGUCUAUAUTT against Slc26a2, inactive: 0.951.
Consider GGUACUGAGAGACAUCGAGTT against Tgtp1, for which the z-score is inactive: 0.19.
Turning to GGCAUGUACCAUGUUUUUGTT against Wdr13, the z-score was inactive: -0.607.
The result for CCACUGGUGGACAAACUUUTT against A2ml1 reads inactive: 1.3; that for “GGAUCUGGAGGACGAUUCATT against 1700020L24Rik”, inactive: -0.264.
Turning to GGAGAAAACUUAGAUUACCTT against Ppil4, the z-score was active: 2.15.
For GGAUUCAAACUGGUUUUCATT against Ptcd3, the z-score is inactive: 1.8.
The result for GGUUUCUAUAAAUCUCCCUTT against Eif4b reads inactive: 0.895; that for GGAUUACCAGUCUGGAAGUTT against Eef1d, inactive: 1.24; that for CCUUCACUAAGGGUAGCUGTT against Serinc4, inactive: 1.02.
The value for CCGUUCCCUAAAUGAAUAUTT against Smc6 was inactive: 0.894; that for GGGUUUCUGAGAUUACUGCTT against Ovca2 was inactive: 0.455; that for GGUGUUCGUCAUAUGGAAUTT against Tex46 was active: 3.71.
The result for GGCUUCAAACAUCCGUUCGTT against Foxb2 reads inactive: 1.2; that for GGGAGCAACAGUGGUUGGATT against Cenpk, inactive: -0.278.
On to “GGCUGCAUUUAAUGUUUUATT against St6galnac3”, for which the z-score is inactive: 1.33.
The value for GGAUGAAGACUAAUACUAATT against Ltbp2 was inactive: 0.724; that for GGCGAAUUGUAUUUGAAAGTT against Lactb was inactive: 0.686.
The result for GGAGAACCUUGUGGACAAGTT against Xpnpep1 reads inactive: 1.86; that for GCCUCUGAGUUGCAUGAGUTT against Ppp2r5b, inactive: -0.736; that for GGAGCACCUAACAACUGUUTT against Errfi1, inactive: 0.0582.
The result for CGAGAAAGUAUUGACCGAGTT against Anxa5 reads inactive: -0.524.
With CACCUUCAUUUUUGAAAUCTT against Krt6a, the z-score is inactive: 1.28.
The value for GGAGCAUCAUCUGAGCGAGTT against Idh3b was inactive: -0.66; that for GGACUCAAAACCAUUUACATT against Dram1 was inactive: -1.13.
For CCUGAACCGUCGUCAACUUTT against Atp5d, the z-score is inactive: -0.695.
The value for GGAAGGAGAAUAUUUGACATT against Sh3tc2 was inactive: -0.931; that for GCCUACGAAGUCUUGUCAGTT against Dnajb8 was inactive: -0.432; that for GGGUUUUUCAUAAACAAAGTT against Pdcd1lg2 was inactive: -1.46.
The value for GGAAAUGCUUCUAAAGUCATT against Actg2 was inactive: 0.748; that for UCCAUACUACUCAUCAAAUTT against Olfr68 was active: 3.78.
With GGCUUUUUCAACAUGUGGATT against Olfr853, the z-score is inactive: -0.0891.
